Data published in the supplement of paper PMC3334620.
The full ranking holds about 33,000 sequences; the median of “E-score (-0.5 to 0.5)” is about -0.0059, and the highest 2% start at about 0.26. This is one part of the list.

The sequences below were run against T1, Cin5 (UniProt P40917) (assay: PBM E-score (8-mer binding enrichment) (E-score (-0.5 to 0.5)); higher = stronger / more preferred TF binding). Settings: protein concentration: 100 nM; construct: GST-full length.
T1 sequence: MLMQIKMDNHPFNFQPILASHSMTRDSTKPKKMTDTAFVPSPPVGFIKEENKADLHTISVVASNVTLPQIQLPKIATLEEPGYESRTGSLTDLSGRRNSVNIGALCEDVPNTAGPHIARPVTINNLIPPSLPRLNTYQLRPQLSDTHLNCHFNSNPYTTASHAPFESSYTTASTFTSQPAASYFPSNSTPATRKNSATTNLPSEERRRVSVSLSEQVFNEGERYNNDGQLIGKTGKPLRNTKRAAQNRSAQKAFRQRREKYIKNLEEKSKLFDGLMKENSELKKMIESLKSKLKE
In short: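 Masliner-normalised scans of fluorescent anti-GST signal were the basis for scoring. That signal came from GST-tagged yeast transcription factors applied at about 100-200 nM to double-stranded universal all-10-mer Agilent arrays on fresh or once-stripped slides. Each ungapped eight-base word, pooled with its reverse complement, received an E-score from the Universal PBM Analysis Suite.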

In order of falling “PBM E-score” value:
1. ACTAATCG  0.355
2. AATGTAAG  0.319
3. ATACATAT  0.318
4. CAACCGCG  0.269
5. ATTATACG  0.257
6. CCCACCCC  0.24
7. GATAATAC  0.235
8. AGCGATCG  0.22
9. ACGAAATC  0.214
10. AAATCAAT  0.205
11. AACCGGAA  0.202
12. GATTTCAC  0.197
13. AATGTAAA  0.19
14. ATACGCAT  0.184
15. AGAATGCA  0.179
16. GTGGTTAA  0.176
17. AACCAAGT  0.173
18. TACTTCCA  0.169
19. AACAAGAT  0.146
20. CCGGAACA  0.145
21. ACCACATG  0.143
22. CAACACAA  0.139
23. ATGAGAGA  0.135
24. AAATAGTT  0.133
25. TAAATGAA  0.129
26. ACAGTTCA  0.128
27. ACCTACAA  0.128
28. CGGCATGC  0.127
29. AACCGAAA  0.121
30. CCATATGG  0.12
31. AGTTAAAC  0.115
32. GTTAAGCA  0.114
33. AGGTATAA  0.114
34. GCCATACA  0.114
35. ATATGCTC  0.101
36. AATAAACG  0.098
37. ATAACATG  0.0972
38. ATCACTGC  0.0947
39. AACCATGC  0.0918
40. ACCCAATA  0.0873
41. GAGCACGA  0.0847
42. CCGGAATA  0.0845
43. AGTCGAAC  0.082
44. CGTCGTGC  0.0808
45. AATGCGGA  0.0808
46. TGGGGTAA  0.0776
47. TAGGTTCA  0.0773
48. CTGAGTCA  0.077
49. AGATATTC  0.0754
50. ATCAGCAC  0.0734
51. AAGTGTCG  0.0696
52. AGCTAGAT  0.0636
53. ATCAAATG  0.0633
54. CGAATGCA  0.0628
55. CGCAAATA  0.0628
56. AAGATAAG  0.0623
57. CACCCTAA  0.0583
58. AATTCAAT  0.0563
59. GCAGACAC  0.0505
60. TTCTGCAA  0.049
61. ATTTGACG  0.049
62. AAAGTCAA  0.0463
63. CGTGATAC  0.0414
64. AGATCGTG  0.0401
65. ACTTGCTG  0.0391
66. CATTCTGA  0.0376
67. CATGTGTA  0.0361
68. CCCCTTGA  0.0353
69. ATCCACAC  0.0312
70. CCCATTGC  0.0275
71. GGCCGTAA  0.0269
72. TATCAGGA  0.0257
73. AAGCAGGA  0.0254
74. ACATCTTG  0.0223
75. CTATCTAA  0.0212
76. GATGATCA  0.0191
77. ATGGTAAG  0.0174
78. GTCTGTAA  0.0157
79. GTTAGCTA  0.0147
80. TACCGGTA  0.0137
81. CATGCGCA  0.0113
82. GAAATTCC  0.0113
83. CCGCGTCG  0.00926
84. GATCACAC  0.00476
85. GCAGGCAA  0.00071
86. AATCATCT  -0.00464
87. AACAGGGA  -0.00767
88. CGTCGGTC  -0.00791
89. AATGCGGC  -0.00913
90. GGGCGTCA  -0.00967
91. CTCGACTC  -0.0107
92. CGATGCAC  -0.0125
93. ACAACGTA  -0.0126
94. GGATGGAC  -0.0178
95. TGCCTACA  -0.0179
96. AGACGATA  -0.0186
97. CGCGCTAG  -0.0212
98. GCGCGGCC  -0.0214
99. GGCCTTAA  -0.0219
100. ACCTATCA  -0.0231
101. ACGGCCAG  -0.027
102. GAACGATC  -0.0283
103. CTACCCGC  -0.0292
104. GCGGGGAC  -0.0316
105. CAATCGCC  -0.0396
106. ACACCGCC  -0.0408
107. AACGCGCC  -0.0466
108. GAACATGC  -0.0608
109. CCTCCCTC  -0.0631
110. ACGCAGGA  -0.0654
111. CTATACGA  -0.0708
112. AGAACGGG  -0.0709
113. AATGGGCT  -0.0711
114. GGCCCAAC  -0.0745
115. CGCCTCCA  -0.0747
116. AACCCTAC  -0.0781
117. GGATCTCA  -0.0792
118. GCTTTAAA  -0.08
119. GAACCCAA  -0.0818
120. ATGTGACC  -0.0859
121. AGGAGCAC  -0.0874
122. CAAACATC  -0.0882
123. CATACCGA  -0.0899
124. ATGGACCC  -0.0981
125. CCTTATTC  -0.0989
126. CCCTCACC  -0.101
127. GCAACTCC  -0.101
128. TCACTGGA  -0.104
129. CAGAGTGC  -0.106
130. ACGCCCTG  -0.112
131. CACGGCGG  -0.114
132. AGCGCTGC  -0.115
133. AGGGTTAC  -0.116
134. ATCAGATG  -0.116
135. ACGGCCTC  -0.117
136. GGTCCCAA  -0.119
137. GCCGCCAA  -0.123
138. GGTTACAC  -0.124
139. GCTGTCAC  -0.126
140. CGGTTCCA  -0.133
141. CACTCTAG  -0.137
142. CCTGGTCA  -0.141
143. AAGGCCCA  -0.143
144. ACTAGGGG  -0.144
145. ACCTAGTA  -0.146
146. ATAGGAGA  -0.151
147. GCGCTCAA  -0.158
148. ACAGGTAC  -0.158
149. AGGGTTTC  -0.16
150. AAGAGGGG  -0.161
151. CGACTGGA  -0.167
152. GGGCTGTA  -0.171
153. ACCCCGTC  -0.171
154. AGTCCAGG  -0.177
155. CTGCCAAC  -0.179
156. CTGAAAAA  -0.199
157. AAGACTTA  -0.205
158. GCGGACGC  -0.205
159. CACGCATG  -0.206
160. GTATGGGA  -0.207
161. AGGCCAAG  -0.214
162. TCTGCCAA  -0.216
163. AGACCTGC  -0.218
164. GCTCTGAC  -0.226
165. CCGACGCA  -0.242
166. ACTTAGGC  -0.265
167. AGTCTGCC  -0.287
168. CGGCCCCG  -0.29
169. AGCCTCTA  -0.292
170. CCTCCCGA  -0.3
171. CCCGGAGG  -0.377
172. CCCCCAGC  -0.399
